Data as given in patent US20260345717A1, “COMPOSITION FOR PREVENTING, AMELIORATING, OR TREATING ALZHEIMER'S DISEASE COMPRISING GRAPEVINE STEM EXTRACT OR COMPOUND ISOLATED THEREFROM AS EFFECTIVE COMPONENT” (KOREA INSTITUTE OF ORIENTAL MEDICINE, priority 2022, published 2026).
The name of at least one read-out is uncertain.

Test system: U373-MG cells infected with herpes simplex virus (HSV-1)
Assay: Cell survival of HSV-1 infected U373-MG cells, MTT assay
Type: cell-based, human
Conditions: 10 μM, FIG. 5A, 1080 min
Description: U373-MG cells, a human-derived glioblastoma, were cultured in RPMI1640 medium supplemented with 10% FBS (Fetal bovine serum) and 1% penicillin/streptomycin. After culturing, the cells were infected with herpes simplex virus (HSV-1, 0.1 MOI) in RPMI1640 medium supplemented with 1% penicillin/streptomycin. After 2 hours, the infection solution was removed. After washing with PBS, the cells were treated for 18 hours with a sample in RPMI1640 supplemented with 10% FBS and 1% penicillin/streptomycin. […] Cell survival rate was expressed as cell survival rate compared to the untreated group (control).

In the case of cis-vitisin A, the “fold increase of cell survival rate compared to the virus-infected group” value is reported as 2.1 fold.
